From PMC11260465
Results are given in words; binding and its absence hold for the method and conditions named. In cells and extracts the contact can be indirect. Some binding calls cover weakened binding; strength is not graded here. Where a sequence is shown, tags or fusion partners need not be part of it.

The chains behind the UniProt entries cited, without tags or fusion partners.
UniProt Q9NS91: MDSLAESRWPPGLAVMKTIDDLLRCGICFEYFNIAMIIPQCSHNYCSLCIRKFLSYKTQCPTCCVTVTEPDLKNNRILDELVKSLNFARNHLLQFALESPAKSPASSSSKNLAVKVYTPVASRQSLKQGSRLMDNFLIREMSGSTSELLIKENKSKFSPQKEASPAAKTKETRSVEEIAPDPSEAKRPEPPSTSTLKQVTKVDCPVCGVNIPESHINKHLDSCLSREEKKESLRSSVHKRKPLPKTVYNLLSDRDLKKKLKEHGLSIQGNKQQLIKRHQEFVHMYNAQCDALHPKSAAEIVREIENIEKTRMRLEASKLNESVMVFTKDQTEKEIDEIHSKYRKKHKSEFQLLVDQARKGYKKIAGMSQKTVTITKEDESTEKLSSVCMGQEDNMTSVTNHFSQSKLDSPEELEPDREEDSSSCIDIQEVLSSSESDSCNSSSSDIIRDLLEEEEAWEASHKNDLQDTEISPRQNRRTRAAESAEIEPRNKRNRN

Target: T1, EGFP-SLF1 (wild type), U2OS (UniProt Q9BQI6)
T1 sequence: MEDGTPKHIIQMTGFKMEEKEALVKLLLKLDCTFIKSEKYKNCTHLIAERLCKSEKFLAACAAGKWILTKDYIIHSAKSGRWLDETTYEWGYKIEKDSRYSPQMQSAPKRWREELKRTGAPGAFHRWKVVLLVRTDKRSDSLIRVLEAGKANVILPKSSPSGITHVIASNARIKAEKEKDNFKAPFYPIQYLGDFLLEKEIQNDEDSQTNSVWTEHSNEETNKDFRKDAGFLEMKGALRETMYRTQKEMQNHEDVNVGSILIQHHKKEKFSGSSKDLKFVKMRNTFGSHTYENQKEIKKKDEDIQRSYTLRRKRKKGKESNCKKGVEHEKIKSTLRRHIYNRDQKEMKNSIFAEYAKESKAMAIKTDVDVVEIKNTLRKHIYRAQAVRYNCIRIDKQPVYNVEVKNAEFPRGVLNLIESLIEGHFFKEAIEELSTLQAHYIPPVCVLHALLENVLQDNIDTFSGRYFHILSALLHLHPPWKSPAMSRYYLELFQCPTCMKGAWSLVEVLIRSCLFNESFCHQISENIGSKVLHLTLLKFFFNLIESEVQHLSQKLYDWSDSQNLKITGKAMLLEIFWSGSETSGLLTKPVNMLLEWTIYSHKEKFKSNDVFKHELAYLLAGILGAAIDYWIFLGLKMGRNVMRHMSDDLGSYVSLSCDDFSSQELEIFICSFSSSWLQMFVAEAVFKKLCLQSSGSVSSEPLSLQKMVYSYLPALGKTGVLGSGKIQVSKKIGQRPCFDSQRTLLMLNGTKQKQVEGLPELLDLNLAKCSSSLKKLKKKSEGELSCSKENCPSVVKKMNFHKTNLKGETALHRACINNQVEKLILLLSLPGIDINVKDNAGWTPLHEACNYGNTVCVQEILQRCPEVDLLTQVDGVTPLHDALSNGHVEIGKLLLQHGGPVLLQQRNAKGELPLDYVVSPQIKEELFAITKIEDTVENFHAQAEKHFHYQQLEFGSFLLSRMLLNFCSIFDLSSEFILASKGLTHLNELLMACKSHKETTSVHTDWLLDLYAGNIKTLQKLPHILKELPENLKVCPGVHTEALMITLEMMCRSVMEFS
Experiment: proximity ligation; U2OS transfected with EGFP-SLF1 variants, IR-irradiated as indicated 2 h before fixation; PLA with RAD18 and GFP antibodies; nuclear PLA intensity normalised to SLF1-WT in S cells

RAD18, endogenous (U2OS) (from UniProt Q9NS91 1-495)
binding: binds
